Assay results reported in publication PMC9556925.

Target: IRS1myc
Experiment: co-IP; HEK293T cells transfected 24 h; IRS1myc precipitated with Myc-Trap_A from lysate (50 mM Tris-HCl pH 7.4, 150 mM NaCl, 1 mM EDTA, 1% Triton X-100), 2 h at 4°C; immunoblot; for DYRK1A-GFP also after siRNA knock-down of DCAF7 (Figure S1C, cells not stated)

B1: DCAF7-Flag (protein, UniProt P61962 1-342)
chain: MSLHGKRKEIYKYEAPWTVYAMNWSVRPDKRFRLALGSFVEEYNNKVQLVGLDEESSEFICRNTFDHPYPTTKLMWIPDTKGVYPDLLATSGDYLRVWRVGETETRLECLLNNNKNSDFCAPLTSFDWNEVDPYLLGTSSIDTTCTIWGLETGQVLGRVNLVSGHVKTQLIAHDKEVYDIAFSRAGGGRDMFASVGADGSVRMFDLRHLEHSTIIYEDPQHHPLLRLCWNKQDPNYLATMAMDGMEVVILDVRVPCTPVARLNNHRACVNGIAWAPHSSCHICTAADDHQALIWDIQQMPRAIEDPILAYTAEGEINNVQWASTQPDWIAICYNNCLEILRV
In the case of B1, the binding is reported as “binds”.

These are yes or no findings as the source states them, for the method shown. Binding seen in cells or lysates may run through a third protein. Binding can be weak; no strength is given. Where a sequence is shown, tags or fusion partners need not be part of it.
